Paper PMC7994586, “The box C/D snoRNP assembly factor Bcd1 interacts with the histone chaperone Rtt106 and controls its transcription dependent activity” (Nature Communications, 2021)
No constants are given. Whether binding was seen depends on the method and setting. Where a sequence is shown, tags or fusion partners need not be part of it.

Molecular target: T1, full-length Bcd1p (Bcd1pFL) fused to the Gal4 binding domain (BD) (S. cerevisiae) (UniProt P38772)
T1 sequence: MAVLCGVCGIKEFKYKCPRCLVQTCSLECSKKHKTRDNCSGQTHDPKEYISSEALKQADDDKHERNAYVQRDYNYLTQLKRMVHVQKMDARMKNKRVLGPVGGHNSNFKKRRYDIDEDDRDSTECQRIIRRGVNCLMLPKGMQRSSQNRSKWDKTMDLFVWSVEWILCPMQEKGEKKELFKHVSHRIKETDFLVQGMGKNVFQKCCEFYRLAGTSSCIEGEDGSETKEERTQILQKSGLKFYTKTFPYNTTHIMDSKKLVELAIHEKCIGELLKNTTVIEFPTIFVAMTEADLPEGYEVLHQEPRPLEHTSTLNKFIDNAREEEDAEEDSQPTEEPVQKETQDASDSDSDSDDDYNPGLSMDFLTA
Test: two-hybrid; Bcd1pFL on Gal4 BD (pGBKT7, bait), partners on Gal4 AD (pACTII, prey); diploids on Leu-Trp-His- medium with increasing 3-AT, growth after three days at 30 °C

Substance	binding
Pob3p-M fused to the Gal4 activation domain (S. cerevisiae) (domain or fragment)	no binding
Spt16p-M fused to the Gal4 activation domain (S. cerevisiae) (domain or fragment)	no binding
